Where “and” joins values, the source holds several entries; their conditions need not be identical. Identical values can stand only once. This continues a long series; more values of the same kind are listed elsewhere.
System: collagen-induced arthritis
Experiment: Collagen-induced arthritis (CIA) model: clinical scores and paw volume; for Animal paw volume percent change (%): reference of the scale not given here
Format: in vivo, Lewis rats
Conditions: for Animal paw volume percent change (%) / Animal paw volume / clinical score (score, all limbs) / clinical score left hind limb / clinical score right hind limb / clinical score left forelimb / clinical score right forelimb: individual animals; for Overall Clinical Score: individual animals 1-8
[1] = group 6 CIA + Compound A 3 mg/kg, Day 18, 3 mg/kg
[2] = group 6 CIA + Compound A 3 mg/kg, Day 19, 3 mg/kg
[3] = group 6 CIA + Compound A 3 mg/kg, Day 20, 3 mg/kg
[4] = group 7 CIA + Compound A 10 mg/kg, Day 18
[5] = group 7 CIA + Compound A 10 mg/kg, Day 18, 10 mg/kg
[6] = group 7 CIA + Compound A 10 mg/kg, Day 19, 10 mg/kg
[7] = group 7 CIA + Compound A 10 mg/kg, Day 20, 10 mg/kg

## Cn1cc(-c2ccccc2)c(-c2cn(C)c(=O)c3[nH]c(-c4cnn(C(F)(F)F)c4)cc23)cc1=O [Compound A, 6-methyl-4-(1-methyl-2-oxo-5-phenyl-1,2-dihydropyridin-4-yl)-2-(1-(trifluoromethyl)-1H-pyrazol-4-yl)-1,6-dihydro-7H-pyrrolo[2,3-c]pyridin-7-one]
Day 19, L paw, group 7 CIA + Compound A 10 mg/kg, 10 mg/kg
  Animal paw volume percent change (%): 23.75% and 58.37% and 12.83% and 30.48% and 33.46% and 8.30% and 36.58% and 9.20%
Day 19, R paw, group 5 CIA + Compound A 1 mg/kg, 1 mg/kg
  Animal paw volume percent change (%): 4.46%
Day 19, R paw, group 6 CIA + Compound A 3 mg/kg, 3 mg/kg
  Animal paw volume percent change (%): 22.47% and 20.69% and 30.12%
Day 19, R paw, group 7 CIA + Compound A 10 mg/kg, 10 mg/kg
  Animal paw volume percent change (%): 16.86% and 50.19% and 45.08% and 55.60% and 19.03% and 0.75% and 46.69% and 30.89%
Day 19, CIA + Compound A 3 mg/kg, 3 mg/kg
  Overall Clinical Score: 3
Day 19, CIA + Compound A 10 mg/kg, 10 mg/kg
  Overall Clinical Score: 3 and 6 and 2 (2×) and 5 (3×) and 0
Day 19, L paw, Group 5 (CIA + Compound A 1 mg/kg), 1 mg/kg
  Animal paw volume: 1.40 mL
Day 19, L paw, Group 6 (CIA + Compound A 3 mg/kg), 3 mg/kg
  Animal paw volume: 1.59 mL and 1.68 mL
Day 19, L paw, Group 7 (CIA + Compound A 10 mg/kg), 10 mg/kg
  Animal paw volume: 1.62 mL and 2.04 mL and 1.50 mL and 1.76 mL (2×) and 1.80 mL and 1.44 mL and 1.43 mL
Day 19, R paw, Group 5 (CIA + Compound A 1 mg/kg), 1 mg/kg
  Animal paw volume: 1.41 mL
Day 19, R paw, Group 6 (CIA + Compound A 3 mg/kg), 3 mg/kg
  Animal paw volume: 1.64 mL and 1.58 mL and 1.69 mL
Day 19, R paw, Group 7 (CIA + Compound A 10 mg/kg), 10 mg/kg
  Animal paw volume: 1.53 mL and 1.93 mL and 1.92 mL and 2.09 mL and 1.60 mL and 1.35 mL and 1.89 mL and 1.70 mL
Day 21, L paw, group 5 CIA + Compound A 1 mg/kg, 1 mg/kg
  Animal paw volume percent change (%): 5.20%
Day 21, L paw, group 6 CIA + Compound A 3 mg/kg, 3 mg/kg
  Animal paw volume percent change (%): 23.22% and 19.47% and 20.69%
Day 21, L paw, group 7 CIA + Compound A 10 mg/kg, 10 mg/kg
  Animal paw volume percent change (%): 23.75% and 66.15% and 14.34% and 52.79% and 33.83% and 8.30% and 41.25% and 9.20%
Day 21, R paw, group 5 CIA + Compound A 1 mg/kg, 1 mg/kg
  Animal paw volume percent change (%): 5.20%
Day 21, R paw, group 6 CIA + Compound A 3 mg/kg, 3 mg/kg
  Animal paw volume percent change (%): 26.22% and 20.69% and 30.12%
Day 21, R paw, group 7 CIA + Compound A 10 mg/kg, 10 mg/kg
  Animal paw volume percent change (%): 16.86% and 68.48% and 45.08% and 66.04% and 22.01% and 0.75% and 55.25% and 31.66%
Day 21, CIA + Compound A 10 mg/kg, 10 mg/kg
  Overall Clinical Score: 3 (2×) and 6 (2×) and 4 and 0 and 5 and 2
Day 21, L paw, Group 5 (CIA + Compound A 1 mg/kg), 1 mg/kg
  Animal paw volume: 1.42 mL
Day 21, L paw, Group 6 (CIA + Compound A 3 mg/kg), 3 mg/kg
  Animal paw volume: 1.65 mL and 1.57 mL and 1.58 mL
Day 21, L paw, Group 7 (CIA + Compound A 10 mg/kg), 10 mg/kg
  Animal paw volume: 1.62 mL and 2.14 mL and 1.52 mL and 2.06 mL and 1.80 mL and 1.44 mL and 1.82 mL and 1.43 mL
Day 21, R paw, Group 5 (CIA + Compound A 1 mg/kg), 1 mg/kg
  Animal paw volume: 1.42 mL
Day 21, R paw, Group 6 (CIA + Compound A 3 mg/kg), 3 mg/kg
  Animal paw volume: 1.69 mL (2×) and 1.58 mL
Day 21, R paw, Group 7 (CIA + Compound A 10 mg/kg), 10 mg/kg
  Animal paw volume: 1.53 mL and 2.17 mL and 1.92 mL and 2.23 mL and 1.64 mL and 1.35 mL and 2.00 mL and 1.71 mL
[1]
  clinical score (score, all limbs): 3 (2×) and 2 (5×)
  clinical score left hind limb: 0 (2×) and 1 (4×)
  clinical score right hind limb: 1
[2]
  clinical score (score, all limbs): 3
  clinical score left hind limb: 1
[3]
  clinical score (score, all limbs): 3
  clinical score left hind limb: 1
  clinical score right hind limb: 2
[4]
  clinical score left forelimb: 0
  clinical score right forelimb: 0
[5]
  clinical score (score, all limbs): 2 (3×) and 6 and 3 and 0 and 4 and 1
  clinical score left hind limb: 1 (3×) and 3 and 0 (3×) and 2
  clinical score right hind limb: 1 (3×) and 3 and 2 (3×) and 0
Group 7 CIA + Compound A 10 mg/kg, Day 19
  clinical score right forelimb: 0
[6]
  clinical score (score, all limbs): 3 and 6 and 2 (2×) and 5 (3×) and 0
  clinical score left forelimb: 0 (6×) and 1 (2×)
  clinical score left hind limb: 1 and 3 and 0 (3×) and 2 (3×)
  clinical score right hind limb: 2 (5×) and 3 (2×) and 0
Group 7 CIA + Compound A 10 mg/kg, Day 20
  clinical score right forelimb: 0
[7]
  clinical score (score, all limbs): 3 (2×) and 6 (2×) and 4 and 0 and 5 and 2
  clinical score left forelimb: 0 (7×) and 1
  clinical score left hind limb: 1 (2×) and 3 (2×) and 2 (2×) and 0 (2×)
  clinical score right hind limb: 2 (5×) and 3 (2×) and 0

From US20260217701A1, “SELECTIVE BET INHIBITORS AND USES THEREOF” (Tay Therapeutics Limited, priority 2022, published 2026)
